Test results from patent US20250145716A1.
Results are given in words; binding and its absence hold for the method and conditions named.

Sequences of proteins named here, by UniProt entry; tags and fusion partners are left off. Residues count along the entry.
UniProt Q9BQ51, residues 20-219: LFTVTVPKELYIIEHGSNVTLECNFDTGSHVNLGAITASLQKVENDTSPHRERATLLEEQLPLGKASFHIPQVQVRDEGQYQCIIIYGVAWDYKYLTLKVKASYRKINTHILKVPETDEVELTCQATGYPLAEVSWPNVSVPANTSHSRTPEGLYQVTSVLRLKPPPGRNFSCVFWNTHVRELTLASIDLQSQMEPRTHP
UniProt P42081, residues 24-247: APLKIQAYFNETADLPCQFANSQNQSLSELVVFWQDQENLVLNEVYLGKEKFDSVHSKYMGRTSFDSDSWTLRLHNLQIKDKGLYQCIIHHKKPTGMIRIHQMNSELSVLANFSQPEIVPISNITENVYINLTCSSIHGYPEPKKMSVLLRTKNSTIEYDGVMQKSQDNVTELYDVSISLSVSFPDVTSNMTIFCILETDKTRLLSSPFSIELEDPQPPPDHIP

Legend:
[1] = target: human B7-1/CD80 (RD Systems 9050-B1) (human) (UniProt P33681); assay: ELISA, plate-coated human B7-1/CD80, OD 450 nm
[2] = target: T1, human B7-H2 (RD Systems 8206-B7) (human) (UniProt O75144); assay: ELISA, plate-coated human B7-H2, OD 450 nm
T1 sequence (looked up): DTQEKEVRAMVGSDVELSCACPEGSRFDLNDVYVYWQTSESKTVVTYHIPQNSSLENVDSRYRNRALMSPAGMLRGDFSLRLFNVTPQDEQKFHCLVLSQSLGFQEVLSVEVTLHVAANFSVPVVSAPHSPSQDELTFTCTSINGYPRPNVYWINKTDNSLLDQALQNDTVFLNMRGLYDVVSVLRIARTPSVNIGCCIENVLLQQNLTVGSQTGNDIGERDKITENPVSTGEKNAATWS

[3] = target: human PD-L2 (RD Systems 9075-PL) (human) (UniProt Q9BQ51); assay: ELISA, plate-coated human PD-L2, OD 450 nm
[4] = target: human B7-2/CD86 (RD Systems 9090-B2) (human) (UniProt P42081); assay: ELISA, plate-coated human B7-2/CD86, OD 450 nm
[5] = target: T1, human B7-H2 (RD Systems 8206-B7) (human); assay: ELISA, ligand coated at 1 µg/mL, 8 antibody concentrations
[6] = target: human B7-2/CD86 (RD Systems 9090-B2) (human) (UniProt P42081); assay: as above
[7] = target: T2, human B7-H3 (RD Systems 1949-B3) (human) (UniProt Q5ZPR3); assay: as above
T2 sequence (looked up): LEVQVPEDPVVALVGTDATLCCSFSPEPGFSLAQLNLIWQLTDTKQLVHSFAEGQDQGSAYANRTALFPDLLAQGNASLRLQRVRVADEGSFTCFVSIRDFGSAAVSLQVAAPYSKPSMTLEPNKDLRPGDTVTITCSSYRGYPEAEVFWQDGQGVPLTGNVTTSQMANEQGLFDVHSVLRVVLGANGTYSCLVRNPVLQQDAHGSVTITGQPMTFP

[8] = target: human PD-L2 (RD Systems 9075-PL) (human) (UniProt Q9BQ51); assay: as above
[9] = target: human B7-1/CD80 (RD Systems 9050-B1) (human) (UniProt P33681); assay: as above
[10] = target: T2, human B7-H3 (RD Systems 1949-B3) (human); assay: ELISA, plate-coated human B7-H3, OD 450 nm

binding [1]: no binding (tested: about 4000 ng/mL)
binding [2]: no binding (tested: about 4000 ng/mL)
binding [3]: no binding (tested: about 4000 ng/mL)
binding [4]: no binding (tested: about 4000 ng/mL)
binding [5]: no binding (tested: 1 ng/mL to 3 mg/mL)
binding [6]: no binding (tested: 1 ng/mL to 3 mg/mL)
binding [7]: no binding (tested: 1 ng/mL to 3 mg/mL)
binding [8]: no binding (tested: 1 ng/mL to 3 mg/mL)
binding [9]: no binding (tested: 1 ng/mL to 3 mg/mL)
binding [10]: no binding (tested: about 4000 ng/mL)
B1: 1P9 (antibody, V domains shown)
VH: EVQLVESGGGLVQPGGSLRLSCAASGFTFSTYWMSWVRQAPGKGLEWVANIKQDGGERYYVDSVKGRFTISRDNAKSSLYLQMNSLRAEDTALYYCARLRLYSDYEDYWGQGTLVTVSS
VL: DIQMTQSPSSVSASVGDRVTITCRASQGISSWLAWYQQKPGKAPKLLIYSVSSLQSGVPSRFSGSGSGTDFTLTISSLQPEDSATYYCQQANSLPPTFGGGTKVEIK
